Results are given in words; binding and its absence hold for the method and conditions named. Binding seen in cells or lysates may run through a third protein. Here binding means that the protein was enriched with, or labelled near, the bait; the list need not be complete.
Target: T1, CDKN2A interacting protein (CDKN2AIP) (UniProt Q9NXV6)
T1 sequence: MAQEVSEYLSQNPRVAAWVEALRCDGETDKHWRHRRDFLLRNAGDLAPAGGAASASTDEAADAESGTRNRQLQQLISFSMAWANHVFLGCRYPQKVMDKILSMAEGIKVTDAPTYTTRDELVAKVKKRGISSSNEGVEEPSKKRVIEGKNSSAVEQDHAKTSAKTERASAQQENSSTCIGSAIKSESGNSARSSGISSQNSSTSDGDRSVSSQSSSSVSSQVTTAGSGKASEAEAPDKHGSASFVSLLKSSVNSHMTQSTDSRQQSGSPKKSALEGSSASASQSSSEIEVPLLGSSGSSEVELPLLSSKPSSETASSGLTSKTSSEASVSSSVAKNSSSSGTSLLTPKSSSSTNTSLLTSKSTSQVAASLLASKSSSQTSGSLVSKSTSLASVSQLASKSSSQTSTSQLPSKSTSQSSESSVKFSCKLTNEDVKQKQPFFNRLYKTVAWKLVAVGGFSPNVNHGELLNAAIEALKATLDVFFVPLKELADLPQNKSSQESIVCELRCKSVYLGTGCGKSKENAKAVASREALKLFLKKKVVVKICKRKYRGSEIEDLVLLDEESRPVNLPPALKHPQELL
Test: affinity purification with mass spectrometry; IP-MS in NTERA-2 cells transfected with tagged CDKN2AIP/CARM1; lysis in 20 mM Tris-HCl pH 7.4, 150 mM NaCl, 1 mM EDTA, 1% NP-40; anti-CDKN2AIP antibody or control IgG at 4°C overnight, protein A/G magnetic beads; SDS-PAGE, then mass spectrometry

Protein sequences, listed by entry. Tags and fused reporters are not part of them.
UniProt Q14247: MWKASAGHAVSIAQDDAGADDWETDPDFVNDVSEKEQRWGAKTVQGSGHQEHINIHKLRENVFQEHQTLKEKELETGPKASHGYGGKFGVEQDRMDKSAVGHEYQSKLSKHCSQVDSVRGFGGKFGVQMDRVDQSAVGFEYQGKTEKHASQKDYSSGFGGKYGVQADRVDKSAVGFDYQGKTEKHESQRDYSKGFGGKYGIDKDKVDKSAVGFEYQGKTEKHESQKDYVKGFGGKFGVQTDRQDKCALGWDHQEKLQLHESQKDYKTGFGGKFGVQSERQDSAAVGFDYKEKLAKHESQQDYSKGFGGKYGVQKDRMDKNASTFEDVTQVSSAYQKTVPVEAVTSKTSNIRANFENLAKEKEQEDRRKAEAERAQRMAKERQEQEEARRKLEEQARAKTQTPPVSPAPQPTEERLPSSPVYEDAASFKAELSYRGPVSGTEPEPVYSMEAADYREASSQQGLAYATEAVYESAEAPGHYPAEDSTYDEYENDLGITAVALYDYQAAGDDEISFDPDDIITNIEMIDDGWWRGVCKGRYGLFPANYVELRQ
UniProt P68871: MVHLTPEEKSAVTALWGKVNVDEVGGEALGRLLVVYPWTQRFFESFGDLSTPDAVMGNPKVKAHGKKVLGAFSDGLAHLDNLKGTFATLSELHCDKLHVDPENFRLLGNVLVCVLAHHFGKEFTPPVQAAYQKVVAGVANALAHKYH

Substance | binding
CTTN (from UniProt Q14247 1-550) | binds
HBB (from UniProt P68871 1-147) | binds

Source: PMC9909323
